Measured values: the supplement of paper PMC3334620
Over roughly 33,000 sequences, “E-score (-0.5 to 0.5)” has its median near -0.016; the highest 2% begin near 0.3. The list shows a part of the results.

Biological target: T1, Yer184c (UniProt P39961)
T1 sequence: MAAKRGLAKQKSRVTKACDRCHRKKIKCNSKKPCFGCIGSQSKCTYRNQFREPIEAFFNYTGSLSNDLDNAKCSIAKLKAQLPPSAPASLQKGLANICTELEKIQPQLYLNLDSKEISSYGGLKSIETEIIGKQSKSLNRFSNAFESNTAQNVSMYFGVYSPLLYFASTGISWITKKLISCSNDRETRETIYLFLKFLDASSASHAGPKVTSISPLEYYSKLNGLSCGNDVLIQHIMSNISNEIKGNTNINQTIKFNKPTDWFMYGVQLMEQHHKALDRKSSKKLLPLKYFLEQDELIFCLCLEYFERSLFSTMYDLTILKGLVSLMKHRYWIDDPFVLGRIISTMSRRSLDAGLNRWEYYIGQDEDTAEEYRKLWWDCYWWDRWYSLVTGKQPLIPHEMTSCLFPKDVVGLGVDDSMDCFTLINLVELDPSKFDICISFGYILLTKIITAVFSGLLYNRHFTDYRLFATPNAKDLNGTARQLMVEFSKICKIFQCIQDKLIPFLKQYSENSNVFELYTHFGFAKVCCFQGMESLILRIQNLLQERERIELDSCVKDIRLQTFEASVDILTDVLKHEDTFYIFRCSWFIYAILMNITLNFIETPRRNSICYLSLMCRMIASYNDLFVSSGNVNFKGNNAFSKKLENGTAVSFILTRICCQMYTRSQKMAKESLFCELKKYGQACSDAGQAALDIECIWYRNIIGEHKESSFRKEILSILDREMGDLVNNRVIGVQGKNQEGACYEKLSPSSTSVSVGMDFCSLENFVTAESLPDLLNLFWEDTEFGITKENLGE
Experiment: PBM E-score (8-mer binding enrichment) (E-score (-0.5 to 0.5)); higher = stronger / more preferred TF binding
Conditions: protein concentration: 100 nM; construct: GST-full length
In short: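 Yeast transcription factors carrying a GST tag, as full-length proteins or DNA-binding domains, were produced by PURExpress in vitro transcription/translation. About 100-200 nM protein was applied to universal all-10-mer Agilent arrays, double-stranded by primer extension on fresh or once-stripped slides. Bound protein was detected with fluorescent anti-GST, and scans were normalised with masliner. The Universal PBM Analysis Suite gave each ungapped eight-base word, pooled with its reverse complement, an E-score, a modified Wilcoxon-Mann-Whitney statistic.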

Sequence	PBM E-score
ATCATCCG	0.165
TCGGCACA	0.307
ACCCGGCT	0.22
GACGGCCC	-0.168
CCGAGTTA	0.148
AGAAGGGG	-0.34
CATCCTTA	-0.193
CCGCCTCA	-0.051
CCTGCGCG	-0.0323
CCAGGGAG	-0.322
ATTGACTA	-0.0705
CTCTTGGA	-0.00521
GAAATCTC	0.00773
GGCCGTCA	0.0446
ATTTGATG	0.115
ACGCTCTG	-0.182
CCACCATA	-0.167
GTCTCCCA	-0.222
ACATTCAC	-0.0401
ACGTTAAC	0.00042
CGAAGATA	0.231
ACAGCTGA	-0.0777
ACGTCGGA	0.0419
AGAATTAT	0.111
CATGGACG	-0.0364

Sequence	PBM E-score
CGCGCCGC	0.135
CGCTCCCG	-0.0233
CTGTGCCA	-0.0934
ACCAACCC	-0.22
ACTGCTCC	-0.0256
AGTCGGGC	-0.0974
GGAGCTGA	-0.0113
AACGCGTG	0.0356
CTTCCTCC	-0.0749
AGGTTCAG	0.0607
CTTAAAAA	0.145
AAGTCACC	-0.132
CTAAGCTA	0.0398
AAGGGTAA	-0.0664
GATGGTCA	-0.128
CCAGAGGA	-0.168
AAATCAGG	-0.103
ACACGAGG	-0.0752
CCGAACGC	0.274
CCTCCGAG	0.129
TGCAAGAA	0.163
GGATCGGA	0.228
GAATGGAA	0.112
CTTAGATC	-0.0885
CTGAACAA	0.155

4 entries drawn at random from those above:
Sequence	PBM E-score
CTAAGCTA	0.0398
CCTCCGAG	0.129
AACGCGTG	0.0356
CTTCCTCC	-0.0749

(further entries)

Sequence	PBM E-score
CGAAATCG	0.188
ACGGCTAG	0.0936
GGTGACTA	-0.0917
AACCCATT	-0.0907
CCTGATGC	0.0164
ACTGTATG	-0.0118
CGGCCAGA	0.173
CACGTCAC	-0.147
GGGATCCA	-0.0871
CGTGTAGA	0.119
CAATATAA	0.243
TGCGAGCA	-0.132
ATATAACG	0.255
CGTACGGC	-0.161
AGGTGACG	-0.211
AAGAGTCG	0.0268
ATTGAACA	0.168
ATACCCAG	-0.274
CCCGAGAA	0.234
CGCAGCGA	-0.0158
CGCGCGTC	0.0991
ATTGTCGC	0.0896
ATATGAGG	-0.119
GGCCACAA	-0.135
CGAAGCCC	-0.162

Sequence	PBM E-score
AAGCAGTG	-0.103
GAAACGGA	0.294
CGCAGGCC	0.0676
CCGGCACG	0.288
GGGTCCCA	-0.279
AAAGCTAG	-0.00385
CTCGAGGC	-0.141
CGGCTAAG	0.154
CCTCTATA	-0.193
ACGAAAAA	0.0994
CCCCGCAG	-0.138
GGAAGAAC	0.183
AATGTCGA	0.0454
CGACGACA	-0.193
AGGAGTCA	-0.117
ACCACGGC	0.0346
CGTTCGAG	-0.0991
ACGACTAC	-0.256
GCTGTGAC	-0.0758
TCTGTTCA	0.0199
CTATAGGA	-0.0867
ATCCTCCA	-0.0939
CAACAGTG	-0.128
ACACCCCA	-0.269
GAATTATA	0.193

As entered above:
Value for CTCGAGGC under PBM E-score: -0.141
Value for CTGTGCCA under PBM E-score: -0.0934
Value for GGGTCCCA under PBM E-score: -0.279
Value for AAGAGTCG under PBM E-score: 0.0268

(continued)

Sequence	PBM E-score
ACTATGAG	-0.0187
CGATTGAG	0.00869
CTACTACA	0.16
CGGGCTTC	0.169
ACAGGAAC	0.00507
TTCATAAA	0.15
GGCGACGA	-0.207
AAATGCGA	0.0985
ACGTGGCA	-0.283
AGGTTGTA	0.0467
ACCCACGG	-0.117
CCGCCTCG	0.0564
CAATTGTC	-0.00589
ACACTACG	0.0127
GCATTGTA	-0.0913
GACTTATA	0.21
ATCTCGGA	0.31
AGTGTCGA	-0.00269
CCGTGCCA	-0.127
CACGAAAC	-0.0318
GGCAAAAC	0.0509
CCTCCAAC	-0.246
ACGATATA	0.112
CACAGAAG	-0.109
TCATCCGA	0.34

Sequence	PBM E-score
TAGCAGCA	0.00348
CCGACGCG	0.132
ACATGCTC	-0.0218
ATATAAGC	9e-05
TAATGGGA	-0.274
ATAAAAGG	0.0293
GAAATTTA	0.254
GGAAAGAC	-0.0831
AGTCCAAG	-0.155
TCTATTAA	0.136
GCAATACC	-0.107
GCGACCTA	0.0477
AGGACAAC	0.0373
CCTAAGCG	-0.139
GCTGGTGA	0.0279
ATGACAGA	0.00579
ATTACAGG	0.187
ACATATAA	0.23
GTTAGCCA	-0.00093
AACTACGT	-0.158
TAGTGCAA	0.125
CATAACGA	-0.0902
ATGTGTGC	-0.238
CTTGCGGA	0.0397
CGCAATAA	0.186

Sequence	PBM E-score
ATCTAAGA	0.0758
ACGTAACA	-0.016
GGACCGAA	0.353
AAGGGAAC	-0.176
ACGGCCGT	0.176
CGGAGGAG	-0.0956
ACGCTCGG	0.235
AACGCCCT	-0.246
CAACAGCG	-0.182
CAAATCGC	-0.0704
CTTAAGTC	-0.0503
GAGGGACC	-0.317
CAAGGAGA	-0.126
AAAACGAT	-0.0684
CCGAACCG	0.329
AGCGACAT	-0.0945
ATTATACA	0.147
GCCGGCAC	0.422
GGATGCAC	-0.121
ATTCGAAA	0.0914
AGTTGGTC	-0.0511
GGGGCCAC	-0.226
